{
  "source": "patent US7416885B2",
  "about": "“Proliferated cell lines and uses thereof” (University of South Florida, priority 2002, dated 2008)",
  "tested_on": "UCHCC1 cells",
  "type": "cell-based, rat",
  "note": "At least one structure is not confirmed: it was looked up by name or label, or the drawing left a doubt.",
  "data": [
    {"compound": "COc1ccc(C(=O)O[C@H]2CC[C@@]3(C)[C@@H]4CC[C@H]5[C@]6(O)C[C@H](O)[C@@]7(O)[C@@H](CN8C[C@@H](C)CC[C@H]8[C@@]7(C)O)[C@]6(O)C[C@@]53O[C@]24O)cc1OC", "note": "[veratridine]", "values": [
      {"measurement": "uptake of 22Na", "setting": "differentiated (DMSO-treated) UCHCC1 cells", "result": "significantly increased"},
      {"measurement": "effects on 22Na-uptake", "setting": "thyroid UCHT1 cells and undifferentiated (cultured without DMSO) cerebellar cells", "result": "did not show significant effects"}
    ]}
  ]
}
